The other results are listed elsewhere or left out.
Columns and labels:
Assay in all cases: log2 fold change, soluble protein after heating vs DMSO (PISA); higher = thermal stabilisation; K562 cells, 10 uM, 30 min; active = over 0.2 and 3.5 SD of the protein, either way, in both replicates (recomputed)
[1] = compound: CC[C@@H]1C(=O)N(C)c2cnc(Nc3ccc(C(=O)NC4CCN(C)CC4)cc3OC)nc2N1C1CCCC1
Summary of the method: (§1)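 Thermal stability values are relative to control samples and come from duplicates. They are expressed as log2 fold changes. For measurement, K562 cells (2×10^6 cells/mL) received 10 μM compound for 30 min, and aliquots were heated for 3 min over 48°C-58°C, pooled, and extracted at 4°C in PBS with 0.5% NP-40. Soluble protein, the supernatant after 21,000xg for 90 min, was quantified by TMTpro 16plex LC-MS/MS with equalised channel sums.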

Chains of the proteins cited; added tags and fusions are not shown. Lines headed by an entry give the natural chain unless they say otherwise; changes in a name come on top.
UniProt P15927: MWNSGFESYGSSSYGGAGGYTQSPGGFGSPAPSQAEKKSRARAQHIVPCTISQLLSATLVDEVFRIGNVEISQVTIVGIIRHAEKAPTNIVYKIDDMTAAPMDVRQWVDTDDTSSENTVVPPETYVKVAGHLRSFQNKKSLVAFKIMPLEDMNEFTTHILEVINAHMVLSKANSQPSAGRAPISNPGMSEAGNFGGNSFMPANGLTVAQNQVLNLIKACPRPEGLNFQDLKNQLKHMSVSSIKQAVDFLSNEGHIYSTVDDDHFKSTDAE

volasertib = compound: CC[C@@H]1C(=O)N(C)c2cnc(Nc3ccc(C(=O)N[C@H]4CC[C@H](N5CCN(CC6CC6)CC5)CC4)cc3OC)nc2N1C(C)C [volasertib]
Summary of the method: as §1

[2] = compound: CC[C@H](C)N1C=C(C2=C(C=C(C=C21)C3=CN=C(C=C3)N4CCNCC4)C(=O)NCC5=C(C=C(NC5=O)C)C)C
Summary of the method: as §1

epoxomicin = compound: CC[C@H](C)[C@@H](C(=O)N[C@@H]([C@@H](C)O)C(=O)N[C@@H](CC(C)C)C(=O)[C@]1(CO1)C)NC(=O)[C@H]([C@@H](C)CC)N(C)C(=O)C [epoxomicin]
Summary of the method: as §1

[3] = compound: CCn1cc(-c2ccnc3[nH]c(-c4cccc(CN(C)C)c4)cc23)c(-c2ccc(NC(=O)N(C)C)cc2)n1
Summary of the method: as §1

[4] = compound: CN(C)CC(=O)Nc1ccc2[nH]c(=O)c3ccccc3c2c1
Summary of the method: as §1

[5] = compound: CN1C2=C(C3=C1C(=O)N(N=C3)CC4=CC(=CC=C4)N)SC(=C2)S(=O)C
Summary of the method: as §1

[6] = compound: CN1CCC(CNc2ccc3ncc(-c4cccc(OC(F)(F)F)c4)n3n2)CC1
Summary of the method: as §1

saracatinib = compound: CN1CCN(CCOc2cc(OC3CCOCC3)c3c(Nc4c(Cl)ccc5c4OCO5)ncnc3c2)CC1 [saracatinib]
Summary of the method: as §1

sotrastaurin = compound: CN1CCN(c2nc(C3=C(c4c[nH]c5ccccc45)C(=O)NC3=O)c3ccccc3n2)CC1 [sotrastaurin]
Summary of the method: as §1

Tubastatin A = compound: CN1CCc2c(c3ccccc3n2Cc2ccc(C(=O)NO)cc2)C1 [Tubastatin A]
Summary of the method: as §1

[7] = compound: CNC(=O)C1=CC=CC=C1NC2=NC(=NC=C2Cl)NC3=C(C=C(C=C3)N4CCOCC4)OC
Summary of the method: as §1

defactinib = compound: CNC(=O)c1ccc(Nc2ncc(C(F)(F)F)c(NCc3nccnc3N(C)S(C)(=O)=O)n2)cc1 [defactinib]
Summary of the method: as §1

rucaparib = compound: CNCc1ccc(-c2[nH]c3cc(F)cc4c3c2CCNC4=O)cc1 [rucaparib]
Summary of the method: as §1

[8] = compound: CNc1nc(-c2ccc3c(N)n[nH]c3c2)cc(N2C[C@@H](C(=O)NC3CCCCC3)CC[C@H]2C)n1
Summary of the method: as §1

encorafenib = compound: COC(=O)N[C@@H](C)CNc1nccc(-c2cn(C(C)C)nc2-c2cc(Cl)cc(NS(C)(=O)=O)c2F)n1 [encorafenib]
Summary of the method: as §1

[9] = compound: COC(=O)[C@H](CCSC)NC(=O)C1=C(C=C(C=C1)NC[C@H](CS)N)C2=CC=CC=C2
Summary of the method: as §1

[10] = compound: CCn1c(C(=O)N(C2CC2)C2CC2)cc2c3c(ncn3C)c(Nc3cc(C)n(C)n3)nc21
Summary of the method: as §1

rosiglitazone = compound: CN(CCOC1=CC=C(C=C1)C[C@H]2C(=O)NC(=O)S2)C3=CC=CC=N3 (racemic) [rosiglitazone]
Summary of the method: as §1

alvocidib = compound: CN1CC[C@H](c2c(O)cc(O)c3c(=O)cc(-c4ccccc4Cl)oc23)[C@H](O)C1 [alvocidib]
Summary of the method: as §1

Measured: log2 fold change

RPS19 (UniProt P39019)
inactive: [1] 0.147 | volasertib 0.319 | [2] 0.008 | epoxomicin -0.115 | [3] 0.091 | [4] -0.073 | [5] 0.147 | [6] 0.121 | saracatinib -0.024 | sotrastaurin 0.001 | Tubastatin A 0.089 | [7] 0.07 | defactinib 0.167 | rucaparib 0.136 | [8] 0.064 | encorafenib 0.028 | [9] -0.004

RPL10 (UniProt F8W7C6)
inactive: [1] 0.246 | volasertib -0.152 | [2] -0.048 | epoxomicin 0.017 | [10] -0.198 | [3] 0.152 | [4] -0.073 | rosiglitazone -0.023 | [6] 0.28 | sotrastaurin -0.016 | alvocidib 0.324 | Tubastatin A 0.106 | [7] 0.024 | defactinib 0.242 | rucaparib 0.092 | encorafenib 0.136 | [9] -0.001

RPS2 (UniProt P15880)
inactive: [1] 0.168 | volasertib 0.348 | [2] 0.021 | epoxomicin -0.191 | [3] 0.119 | [4] -0.108 | [5] 0.195 | [6] 0.086 | saracatinib -0.058 | sotrastaurin 0 | Tubastatin A 0.059 | [7] 0.064 | defactinib 0.261 | rucaparib 0.153 | [8] 0.081 | encorafenib 0.07 | [9] 0.042

RPA2 isoform 3 (UniProt P15927)
inactive: [1] 0.015 | volasertib -0.01 | [2] -0.006 | epoxomicin 0.004 | [10] 0.011 | [3] 0.021 | [4] -0.003 | rosiglitazone 0.028 | [5] -0.038 | [6] -0.1 | saracatinib -0.107 | sotrastaurin 0.02 | alvocidib 0.001 | Tubastatin A 0.004 | [7] -0.053 | defactinib -0.03 | rucaparib -0.014 | [8] -0.039 | encorafenib 0.01 | [9] 0.038

RPS14 (UniProt P62263)
inactive: [1] 0.043 | volasertib 0.362 | [2] 0.023 | epoxomicin -0.031 | [3] 0.122 | [4] -0.066 | [5] 0.095 | [6] 0.158 | saracatinib 0.027 | sotrastaurin -0.003 | Tubastatin A 0.123 | [7] 0.056 | defactinib 0.113 | rucaparib 0.107 | [8] 0.069 | encorafenib 0.013 | [9] -0.084
